Source: publication PMC7067851, “Formation of pre-pore complexes of pneumolysin is accompanied by a decrease in short-range order of lipid molecules throughout vesicle bilayers” (Scientific Reports, 2020)
Results are given in words; binding and its absence hold for the method and conditions named. Some results given as binding are weak or reduced against the parent protein; the word gives no strength.

By UniProt entry, the sequences of proteins in these tests, tags left out.
UniProt Q04IN8: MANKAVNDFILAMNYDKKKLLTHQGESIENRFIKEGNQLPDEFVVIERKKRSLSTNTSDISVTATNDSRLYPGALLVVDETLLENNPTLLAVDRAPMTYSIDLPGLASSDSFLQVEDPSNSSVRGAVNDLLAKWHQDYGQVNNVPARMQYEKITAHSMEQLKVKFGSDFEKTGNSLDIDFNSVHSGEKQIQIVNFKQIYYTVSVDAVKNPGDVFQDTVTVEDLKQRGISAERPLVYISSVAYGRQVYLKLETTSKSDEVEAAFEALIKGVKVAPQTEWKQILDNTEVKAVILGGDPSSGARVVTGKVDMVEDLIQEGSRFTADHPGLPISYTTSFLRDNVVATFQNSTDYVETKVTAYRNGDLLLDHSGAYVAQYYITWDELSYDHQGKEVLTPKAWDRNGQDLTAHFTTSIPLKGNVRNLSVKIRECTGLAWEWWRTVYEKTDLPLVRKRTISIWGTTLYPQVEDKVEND

Molecular target: wild-type pneumolysin (Streptococcus pneumoniae) (UniProt Q04IN8)
Test: negative-stain transmission electron microscopy; protein incubated with unilamellar liposomes (1:1 POPC/chol), stained with 1% w/v uranyl acetate on a copper grid; membrane-bound oligomeric structures visualised; both purified

wild-type pneumolysin (from UniProt Q04IN8 1-471)
binding: binds
